From PMC8096952, “Similar pharmacokinetics and pharmacodynamics of a new biosimilar and reference insulin aspart in healthy Chinese males” (Scientific Reports, 2021)

System: C-peptide
Test: Serum C-peptide during euglycemic clamp (endogenous insulin secretion)
Assay type: in vivo
Settings: healthy Chinese males, single 0.2 U/kg s.c., 10-h euglycemic clamp, ELISA; for Postdosing C-peptide: mean ± SD, N = 30
Procedure: The euglycemic clamp study was performed after inserting two catheters (an antecubital venous catheter for infusing 20% dextrose and a retrograde venous catheter in the hand heated in a box at 55–65℃ for measuring blood glucose). After collecting the basal blood glucose level [defined as the mean of the glucose measurement of several times (− 60, − 30, − 20, − 10 min) before dosing], the subjects received a 0.2 U/kg dose of NovoRapid or RD10046 by s.c. injection into a lifted abdominal skin-fold. Blood samples were obtained at the bedside for immediate determination of whole blood glucose concentrations and then monitored every 5 min from 0 to 240 min and every 10 min from 240 to 600 min after dosing. During the euglycemic clamp, the GIR was varied as necessary to maintain the blood glucose concentration within approximately ± 10% of the target level (defined as 0.28 mmol/L below the subject’s basal glucose level). The investigator made the GIR adjustment based on glucose measurements and experience. If the GIR fell to zero for at least 30 min, the clamp was discontinued. A 4-mL blood sample was collected at the following points for analysis of C-peptide and IAsp concentration: − 30, 0 (before dosing), 10, 20, 30, 40, 50, 60, 90, 120, 150, 180, 210, 240, 270, 300, 360, 420, 480 and 600 min. The baseline of C-peptide was defined as the mean value of two measurements at − 30 and 0 min.
Whole blood glucose concentrations were tested with a glucose analyzer (Biosen C_line GP+, Neckar Healthcare. Co. Ltd., Magdeburg, Germany) using an automated glucose oxidase technique. Serum C-peptide levels were analyzed using an ELISA (Cat. No. 80‐CPTHU‐E01.1; ALPCO, Salem, NH), and plasma IAsp concentrations were assessed by means of a validated, ultra-performance liquid chromatography-tandem mass spectrometry (UPLC-MS/MS) method at Covance Laboratories in Shanghai. The ranges of quantification were 20–3000 pmol/L for C-peptide and 0.2–10 ng/mL for IAsp.

| Substance | AUC0–10h of C-peptide | Postdosing C-peptide |
| --- | --- | --- |
| insulin aspart [NovoRapid] | 135 ± 9.77 nmol·min/L | 200 ± 63.0 pmol/L |
| insulin aspart [RD10046] | 139 ± 11.8 nmol·min/L | 206 ± 63.3 pmol/L |
